# Data reported in paper PMC10240976.
# Molecular target: GABARAPL2 (W3S/M4T) of the LIR(Sp)-GABARAPL2 fusion protein (human)
# Assay: crystal structure; LIR fused to the N terminus of the mATG8 protein; sitting-drop vapor diffusion at 20°C; the LIR of one fusion molecule binds the mATG8 of another in the crystal; both purified
binder,measurement,value
LQFEIDDEMEPLYNQAKQMRYGDY (domain or fragment) [SpHfl1 LIR (residues 386-409) of the LIR(Sp)-GABARAPL2 fusion protein],binding,binds

# Results are given in words; binding and its absence hold for the method and conditions named. A result given as binding can be weak or reduced; the word gives no strength. Sequences can lack the tags named with a protein.
